In assay [1] the target is human AR fragment which codes for amino acids 325-919 (human) (UniProt P10275). In words: yeast two-hybrid, AR 325-919 as bait, no androgen.
The target is the same in assay [2]. Nature of the assay: yeast two-hybrid screen of a fetal brain cDNA library, beta-galactosidase assay, no androgen.

Protein sequences, listed by entry. Tags and fused reporters are not part of them. Residues count along the entry.
UniProt P10275, residues 325-919: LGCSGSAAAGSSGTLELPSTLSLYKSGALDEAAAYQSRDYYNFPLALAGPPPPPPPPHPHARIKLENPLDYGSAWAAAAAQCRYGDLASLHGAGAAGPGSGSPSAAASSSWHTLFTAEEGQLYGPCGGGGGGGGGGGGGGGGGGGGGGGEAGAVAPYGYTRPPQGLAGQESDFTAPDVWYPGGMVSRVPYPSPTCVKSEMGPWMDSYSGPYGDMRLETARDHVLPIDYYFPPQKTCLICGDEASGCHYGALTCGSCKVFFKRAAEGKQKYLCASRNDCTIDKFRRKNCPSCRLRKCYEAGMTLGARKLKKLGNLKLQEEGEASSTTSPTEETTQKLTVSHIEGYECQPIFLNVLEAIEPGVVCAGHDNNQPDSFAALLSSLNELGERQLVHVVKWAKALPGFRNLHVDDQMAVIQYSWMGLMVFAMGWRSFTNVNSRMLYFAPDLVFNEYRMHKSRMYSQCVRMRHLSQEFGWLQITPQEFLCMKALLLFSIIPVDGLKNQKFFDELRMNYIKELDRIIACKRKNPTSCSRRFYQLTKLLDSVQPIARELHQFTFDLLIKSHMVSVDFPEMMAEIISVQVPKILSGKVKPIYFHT

These are yes or no findings as the source states them, for the method shown. Some entries that bind do so weakly or less than the wild type.

B1: ARAP11 two-hybrid clone with an insert comprising 1,169 bp (3,243 bp-4,412 bp), which codes for a part of the ORF (protein)
chain: TVKDYLRDIDLICSNALEYNPDRDPGDRLIRHRACALRDTAYAIIKEELDEDFEQLCEEIQESRKKRGCSSSKYAPSYYHVMPKQNSTLVGDKRSDPEQNEKLKTPSTPVACSTPAQLKRKIRKKSNWYLGTIKKRRKISQAKDDSQNAIDHKIESDTEETQDTSVDHNETGNTGESSVEENEKQQNASESKLELRNNSNTCNIENELEDSRKTTACTELRDKIACNGDASSSQIIHISDENEGKEMCVLRMTRARRSQVEQQQLITVEKALAILSQPTPSLVVDHERLKNLLKTVVKKSQNYNIFQLENLYAVISQCIYRHRKDHDKTSLIQKMEQEVENFSCSR
As to B1, the binding entry in assay [1] and in assay [2] was “binds” throughout.

For the origin of these results see patent US20030124508A1, “Method for testing the hormonal effect of substances” (priority 2001, published 2003).
